Measurements published in paper doi:10.1101/2024.05.31.595485.
These are yes or no findings as the source states them, for the method shown. Binding seen in cells or lysates may run through a third protein. These calls come from enrichment with a bait or labelling near it, and not all partners need be listed. Tags and fused reporters may be left off the sequences shown.

By UniProt entry, the sequences of proteins in these tests, tags left out.
UniProt P70372: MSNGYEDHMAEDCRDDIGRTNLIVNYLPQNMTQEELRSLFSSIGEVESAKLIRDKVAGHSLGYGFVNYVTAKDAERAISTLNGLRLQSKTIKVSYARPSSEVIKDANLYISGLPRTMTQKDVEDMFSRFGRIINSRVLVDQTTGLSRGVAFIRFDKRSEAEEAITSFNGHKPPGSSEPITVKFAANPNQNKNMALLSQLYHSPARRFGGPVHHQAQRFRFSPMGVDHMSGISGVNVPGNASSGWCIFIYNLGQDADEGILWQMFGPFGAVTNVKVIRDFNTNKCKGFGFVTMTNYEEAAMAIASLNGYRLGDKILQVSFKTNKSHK
UniProt Q60668: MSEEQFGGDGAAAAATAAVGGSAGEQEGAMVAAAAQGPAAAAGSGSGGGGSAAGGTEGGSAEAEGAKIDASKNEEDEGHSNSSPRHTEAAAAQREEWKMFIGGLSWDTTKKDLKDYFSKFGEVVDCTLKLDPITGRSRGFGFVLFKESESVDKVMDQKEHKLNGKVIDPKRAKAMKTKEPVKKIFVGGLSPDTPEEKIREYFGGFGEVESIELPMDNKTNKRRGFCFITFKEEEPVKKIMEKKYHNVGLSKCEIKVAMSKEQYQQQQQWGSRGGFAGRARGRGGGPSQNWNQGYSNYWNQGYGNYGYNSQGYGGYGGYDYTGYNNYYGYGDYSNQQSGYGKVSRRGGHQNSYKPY
UniProt P99024: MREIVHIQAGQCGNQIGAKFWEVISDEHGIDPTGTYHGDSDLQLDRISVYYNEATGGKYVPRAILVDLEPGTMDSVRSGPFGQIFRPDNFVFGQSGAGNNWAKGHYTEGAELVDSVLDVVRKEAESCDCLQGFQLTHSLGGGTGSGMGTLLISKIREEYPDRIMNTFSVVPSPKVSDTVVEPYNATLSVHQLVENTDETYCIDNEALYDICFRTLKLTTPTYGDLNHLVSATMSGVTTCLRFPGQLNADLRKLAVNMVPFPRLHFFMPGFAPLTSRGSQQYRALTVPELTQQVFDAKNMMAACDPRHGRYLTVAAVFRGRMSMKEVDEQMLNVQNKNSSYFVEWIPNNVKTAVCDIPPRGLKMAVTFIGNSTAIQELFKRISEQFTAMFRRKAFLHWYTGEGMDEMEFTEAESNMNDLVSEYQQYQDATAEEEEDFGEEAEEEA
UniProt Q9D0R8: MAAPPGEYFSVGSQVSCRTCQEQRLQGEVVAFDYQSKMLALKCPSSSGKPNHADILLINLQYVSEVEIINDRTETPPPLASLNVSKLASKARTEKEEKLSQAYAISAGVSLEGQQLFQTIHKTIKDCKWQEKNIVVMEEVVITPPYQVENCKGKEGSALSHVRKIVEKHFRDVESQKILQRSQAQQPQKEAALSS
UniProt O88477: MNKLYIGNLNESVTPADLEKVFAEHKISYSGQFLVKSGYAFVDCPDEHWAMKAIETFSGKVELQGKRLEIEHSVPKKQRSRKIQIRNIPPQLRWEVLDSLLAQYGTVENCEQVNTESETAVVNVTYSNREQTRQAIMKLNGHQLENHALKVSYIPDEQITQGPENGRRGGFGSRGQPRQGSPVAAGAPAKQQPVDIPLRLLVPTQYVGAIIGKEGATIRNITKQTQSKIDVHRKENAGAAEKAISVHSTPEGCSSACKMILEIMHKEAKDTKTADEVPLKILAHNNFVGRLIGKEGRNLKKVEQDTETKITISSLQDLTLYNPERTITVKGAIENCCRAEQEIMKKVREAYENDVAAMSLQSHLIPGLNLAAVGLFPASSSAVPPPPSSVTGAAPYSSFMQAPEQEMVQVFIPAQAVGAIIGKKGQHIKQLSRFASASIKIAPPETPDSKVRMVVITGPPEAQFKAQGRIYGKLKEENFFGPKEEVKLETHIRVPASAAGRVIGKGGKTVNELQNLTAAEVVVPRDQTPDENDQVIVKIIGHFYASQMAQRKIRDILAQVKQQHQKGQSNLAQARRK
UniProt P05213: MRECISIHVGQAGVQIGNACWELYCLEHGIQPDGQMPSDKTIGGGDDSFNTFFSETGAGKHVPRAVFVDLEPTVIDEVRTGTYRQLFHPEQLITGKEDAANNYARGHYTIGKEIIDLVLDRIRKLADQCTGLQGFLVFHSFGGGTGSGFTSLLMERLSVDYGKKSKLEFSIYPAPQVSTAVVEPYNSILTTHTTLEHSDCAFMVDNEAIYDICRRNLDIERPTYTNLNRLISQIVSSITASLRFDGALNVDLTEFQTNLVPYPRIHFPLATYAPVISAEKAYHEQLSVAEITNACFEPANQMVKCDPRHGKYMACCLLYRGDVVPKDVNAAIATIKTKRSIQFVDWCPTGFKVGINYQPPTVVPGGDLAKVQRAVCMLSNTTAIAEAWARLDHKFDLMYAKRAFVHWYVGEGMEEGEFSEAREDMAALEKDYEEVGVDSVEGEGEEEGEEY
UniProt Q9CPN8: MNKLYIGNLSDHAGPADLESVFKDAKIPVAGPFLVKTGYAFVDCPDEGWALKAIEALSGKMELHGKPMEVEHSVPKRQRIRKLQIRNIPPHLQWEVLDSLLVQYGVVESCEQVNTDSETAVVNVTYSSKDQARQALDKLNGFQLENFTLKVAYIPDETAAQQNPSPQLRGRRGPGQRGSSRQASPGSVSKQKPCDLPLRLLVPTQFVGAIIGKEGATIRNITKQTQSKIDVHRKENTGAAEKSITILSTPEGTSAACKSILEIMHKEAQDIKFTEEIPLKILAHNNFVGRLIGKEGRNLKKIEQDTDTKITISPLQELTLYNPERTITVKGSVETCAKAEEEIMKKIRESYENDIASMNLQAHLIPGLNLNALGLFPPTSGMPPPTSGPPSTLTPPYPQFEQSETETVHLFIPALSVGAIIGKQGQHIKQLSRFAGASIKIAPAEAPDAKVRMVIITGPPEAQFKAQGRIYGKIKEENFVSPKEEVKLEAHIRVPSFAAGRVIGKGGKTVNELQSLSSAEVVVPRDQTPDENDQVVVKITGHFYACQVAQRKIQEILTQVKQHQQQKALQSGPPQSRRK
UniProt Q5SF07: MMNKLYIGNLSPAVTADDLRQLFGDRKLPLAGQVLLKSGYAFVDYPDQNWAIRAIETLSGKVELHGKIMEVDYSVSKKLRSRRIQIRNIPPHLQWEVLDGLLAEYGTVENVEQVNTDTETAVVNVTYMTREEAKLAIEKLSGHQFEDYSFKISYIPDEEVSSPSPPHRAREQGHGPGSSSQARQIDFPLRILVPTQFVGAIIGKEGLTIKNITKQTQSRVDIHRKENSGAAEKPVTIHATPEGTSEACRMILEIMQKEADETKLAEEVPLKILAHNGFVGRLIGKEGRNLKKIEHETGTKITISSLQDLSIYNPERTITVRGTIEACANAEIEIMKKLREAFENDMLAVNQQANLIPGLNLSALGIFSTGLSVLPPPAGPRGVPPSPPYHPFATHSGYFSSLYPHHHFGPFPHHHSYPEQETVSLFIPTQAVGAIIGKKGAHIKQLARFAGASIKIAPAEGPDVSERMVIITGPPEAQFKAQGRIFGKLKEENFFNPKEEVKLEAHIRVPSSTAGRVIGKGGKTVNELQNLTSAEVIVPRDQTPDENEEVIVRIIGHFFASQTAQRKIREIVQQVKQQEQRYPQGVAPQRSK

Biological target: T1, STAG3-v5 (mouse (endogenous in mESCs)) (UniProt O70576)
T1 sequence: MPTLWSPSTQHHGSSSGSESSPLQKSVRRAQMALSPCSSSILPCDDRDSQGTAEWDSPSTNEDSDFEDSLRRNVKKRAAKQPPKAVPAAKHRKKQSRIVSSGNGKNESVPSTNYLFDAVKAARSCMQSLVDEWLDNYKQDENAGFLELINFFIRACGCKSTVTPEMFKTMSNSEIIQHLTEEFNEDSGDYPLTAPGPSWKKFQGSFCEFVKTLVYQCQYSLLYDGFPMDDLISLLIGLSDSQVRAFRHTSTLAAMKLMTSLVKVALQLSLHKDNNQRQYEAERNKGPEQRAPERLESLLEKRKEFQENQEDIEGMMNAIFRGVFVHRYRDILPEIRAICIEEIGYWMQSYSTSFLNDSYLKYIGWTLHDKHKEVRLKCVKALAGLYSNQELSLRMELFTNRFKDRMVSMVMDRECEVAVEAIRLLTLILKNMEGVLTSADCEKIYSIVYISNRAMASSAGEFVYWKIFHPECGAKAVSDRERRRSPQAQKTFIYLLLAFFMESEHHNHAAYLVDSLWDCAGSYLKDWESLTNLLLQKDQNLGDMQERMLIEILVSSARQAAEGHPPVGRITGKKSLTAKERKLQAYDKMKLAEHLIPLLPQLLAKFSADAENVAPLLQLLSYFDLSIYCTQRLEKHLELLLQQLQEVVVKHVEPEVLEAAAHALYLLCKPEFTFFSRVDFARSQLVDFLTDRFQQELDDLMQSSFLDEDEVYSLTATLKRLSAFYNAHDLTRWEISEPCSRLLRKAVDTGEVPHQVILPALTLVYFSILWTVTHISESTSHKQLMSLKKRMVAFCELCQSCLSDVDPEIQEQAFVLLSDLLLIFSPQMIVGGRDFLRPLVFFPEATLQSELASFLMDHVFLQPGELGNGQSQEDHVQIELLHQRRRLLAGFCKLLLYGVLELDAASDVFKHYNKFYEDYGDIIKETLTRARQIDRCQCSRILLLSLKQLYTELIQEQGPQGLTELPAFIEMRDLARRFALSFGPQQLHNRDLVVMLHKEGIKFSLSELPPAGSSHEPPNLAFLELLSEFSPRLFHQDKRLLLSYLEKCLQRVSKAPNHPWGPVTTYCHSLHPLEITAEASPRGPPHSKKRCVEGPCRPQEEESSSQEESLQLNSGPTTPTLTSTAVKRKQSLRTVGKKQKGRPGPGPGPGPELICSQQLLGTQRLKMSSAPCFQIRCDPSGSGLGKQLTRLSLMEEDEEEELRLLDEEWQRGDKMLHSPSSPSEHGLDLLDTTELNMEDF
Test: affinity purification with mass spectrometry

Molecule	binding
POC1A (protein, UniProt Q8JZX3 1-405) MAAPSQEDPSLERHFKGHRDAVTCVDFSLNTKHLASGSMDSTLMIWHMKPQSRAYRFTGHKDAVTCVNFSPSGHLLASGSRDKTVRIWVPNVKGESTVFRAHTATVRSVHFCSDGQSLVTASDDKTVKVWSTHRQRFLFSLTQHINWVRCAKFSPDGRLIVSASDDKTVKLWDKTSRECIHSYCEHGGFVTYVDFHPSGTCIAAAGMDNTVKVWDARTHRLLQHYQLHSAAVNALSFHPSGNYLITASSDSTLKILDLMEGRLLYTLHGHQGPATTVAFSRTGEYFASGGSDEQVMVWKSNFDIVDYGDMKARRPPPLTSSSGTLPKMDLPVPPGRDRSLESVQGEPQESISMPQTLTSTLEHIVGQLDILTQTVSILEQRLTLTEDRLKQCLENQQLIMQRTPP	binds
STIL (protein, UniProt Q60988 1-1262) MNTRFPSSKMVPFHFPPSKLALWNPMPIGECIYLHLSYYRKPKLMVTEKAIRLAYRHAKQNKKNVPCFLLGSLTVDEDEEGVTLTIDRFDPGREIPECLERTPTASLPGDFLIPCRVHIQGLGSRDVIVHNADDFSSALKALQYHVCSKDFLDCGKLLCLRAQITPRESLDGVDFNLQWTAVTLANSFKCVPVKPIPIIPTALARNLSSNLNISQVQGTYKHGYITMDETRKLLLLLQSDPKVSSLPLVGIWLAGIIHVYSPQVWACCLRYMFSSSIQERVFSESGNFIIVLYSLTHKEPEFYECLPCESRTPDLQFQLLTNKETLHLFNNVEPSGKNPIHFELSAESQDAEAEAEVLSKISKTLPVKRSSQKLSPGKIPINKHDTDLEDEDFSPRPIPSPHPVSQKISKVQPSVPELSLVLDNNFTESSNQSNPLEMMTVENPLLIKPSQPELCDAKHSSEATTGEPFRRGPTNQLSQDTALRQSRGKQSSTCKKESLQFRNTNAKPSLSVPSPDVAEKLQAVSAGSMQKEDYPVRPSTLDSRQPSLAPQAQPHNLVFSTHNSTRPMELQVPTPSLPSYYPTNVCSCCQHHGHIQYSTINSWQGNTVGSIQDLRSESLPKHAFFHSSGCPSLCPNAIYSSSSPVSMKQGGMGAYSPHSNGEPSPVAGPSHVDSCVPHPCAMCMHTPNTAPDNGMMGLSPDAYRFVTEQDRQLRLLQAQIQRLLEAQSLDPGSHKTVATVEDTVKAAKQMELVSMEAQSSPGLHMRKSVSIAVSTGASLFWNAAGDDQEPDSQPKQDDTKISSEDMNFSVDINNEATSLPGSASSLKAVDIPSFEESNLAVEEVNQPLPESNSSSEQSKEPGVPVFFPNALLAESVSMCLQTAPTEGASNSTELPQGTKDEPYRPSDNQKIYQDLLGQVNHLLSNASQETEEPPTKAVVTNRECAKTQNTHHARKKRHNSGLVDKDCVLSATIKQLRSLGVKIDSPTKVKKNEQKVDHASVLACISPEAVISGLNYMSFGNVGMSSLSPTGVDLSMEANAIALKYLSENQLSQLSLARSKQNNGDSSVGLLHINSDRSTVGLSLVSPSNMSFATKKYMKRYGLLQSSDNSEDEEEPPSHADSESDHVLNRNPACRPVQCGHEKEPSWNACEIAQCSDCGSADTRTDVPVLRNITNQAVQPRATEHLNEDSAISLRNLKPNPAMNLRTGKAEFTHHPEKENERDIAVFPGTLPSPETLKQMNSMDSVGTFLDVKRLRQLPKLF	binds

Biological target: T1, STAG3-v5 (mouse (endogenous in mESCs))
Test: affinity purification with mass spectrometry
Remark: another data set of the same source

Molecule	binding
ELAVL1 (from UniProt P70372 1-326)	binds
HNRNPD (from UniProt Q60668 1-355)	binds
TUBB5 (from UniProt P99024 1-444)	binds
LSM12 (from UniProt Q9D0R8 1-195)	binds
insulin-like growth factor 2 mRNA-binding protein 1 (IGF2BP1) (from UniProt O88477 1-577)	binds
TUBA1b (from UniProt P05213 1-451)	binds
IGF2BP3 (from UniProt Q9CPN8 1-579)	binds
IGF2BP2 (from UniProt Q5SF07 1-592)	binds
